Paper doi:10.1101/2022.09.21.508809
These are yes or no findings as the source states them, for the method shown. For some assays here: Binding seen in cells or lysates may run through a third protein. Some binding calls cover weakened binding; strength is not graded here.

Amino acid sequences for entries named in this document (tags omitted). Residues count along the entry.
UniProt Q9JHJ8, residues 47-277: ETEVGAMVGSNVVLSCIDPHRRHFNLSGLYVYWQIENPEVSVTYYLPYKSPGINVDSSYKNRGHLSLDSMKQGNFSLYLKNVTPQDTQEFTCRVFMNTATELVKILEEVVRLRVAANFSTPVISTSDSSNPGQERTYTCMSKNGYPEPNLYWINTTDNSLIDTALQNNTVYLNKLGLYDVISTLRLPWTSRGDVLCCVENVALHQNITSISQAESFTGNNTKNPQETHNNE
UniProt P31041, residues 20-218: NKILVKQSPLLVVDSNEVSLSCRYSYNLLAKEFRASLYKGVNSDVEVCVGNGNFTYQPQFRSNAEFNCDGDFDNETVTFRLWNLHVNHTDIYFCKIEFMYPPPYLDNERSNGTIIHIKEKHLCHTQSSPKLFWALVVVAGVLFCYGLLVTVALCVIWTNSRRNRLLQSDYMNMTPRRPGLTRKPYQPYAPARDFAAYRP

T1: CD86-Ig (UniProt P42082)
T1 sequence: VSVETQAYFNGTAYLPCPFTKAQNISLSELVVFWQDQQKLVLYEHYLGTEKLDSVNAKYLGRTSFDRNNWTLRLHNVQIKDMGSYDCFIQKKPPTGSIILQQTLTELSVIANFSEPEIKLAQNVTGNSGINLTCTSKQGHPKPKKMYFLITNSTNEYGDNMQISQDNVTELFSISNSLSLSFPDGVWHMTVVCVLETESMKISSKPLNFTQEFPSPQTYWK


Key:
[1] = target: T1, CD86-Ig; test: co-IP
[2] = target: ICOSLG-Ig (UniProt Q9JHJ8); test: co-IP
[3] = target: T1, CD86-Ig; test: cell isolation assay
[4] = target: ICOSLG-Ig (UniProt Q9JHJ8); test: cell isolation assay

| Molecule | binding [1] | binding [2] | binding [3] | binding [4] |
| --- | --- | --- | --- | --- |
| CD28 (from UniProt P31041 20-218) (receptor) | binds | no binding | binds | – |
| ICOS (receptor, UniProt Q9WVS0 21-200) EINGSADHRMFSFHNGGVQISCKYPETVQQLKMRLFREREVLCELTKTKGSGNAVSIKNPMLCLYHLSNNSVSFFLNNPDSSQGSYYFCSLSIFDPPPFQERNLSGGYLHIYESQLCCQLKLWLPVGCAAFVVVLLFGCILIIWFSKKKYGSSVHDPNSEYMFMAAVNTNKKSRLAGVTS | – | binds | – | binds weakly |
